Results taken from US20210017281A1.
These are yes or no findings as the source states them, for the method shown. Some results given as binding are weak or reduced against the parent protein; the word gives no strength.

The chains behind the UniProt entries cited, without tags or fusion partners. Where a name states a change or a piece, a line headed by the entry shows the natural chain unless it says otherwise.
UniProt Q9H7M9: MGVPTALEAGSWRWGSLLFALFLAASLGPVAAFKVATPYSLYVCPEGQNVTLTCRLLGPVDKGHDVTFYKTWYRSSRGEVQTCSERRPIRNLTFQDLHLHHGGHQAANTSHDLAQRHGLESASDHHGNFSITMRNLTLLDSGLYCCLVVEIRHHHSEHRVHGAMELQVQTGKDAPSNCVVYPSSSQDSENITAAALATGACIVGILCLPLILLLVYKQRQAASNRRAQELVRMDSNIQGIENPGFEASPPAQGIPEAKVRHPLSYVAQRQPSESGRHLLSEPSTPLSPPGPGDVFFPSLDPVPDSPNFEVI

Biological target: human VISTA (human) (UniProt Q9H7M9)
Assay: ELISA on recombinant VISTA

- binding: binds
B1: INX901 | VSTB56 (antibody, V domains shown)
VH: QVQLVQSGAEVKKPGASVKVSCKASGYTFTSYWLHWVRQAPGQGLEWMGYIIPNTLHTDYNQKFKDRVTMTRDTSTSTVYMELSSLRSEDTAVYYCARLDGDYDYALDYWGQGTLVTVSS
VL: DIVMTQTPLSLSVTPGQPASISCRASESVEYYGTSFMQWYLQKPGQPPQLLIYTASNVESGVPDRFSGSGSGTDFTLKISRVEAEDVGVYYCQQSRKVPYTFGQGTKLEIK
